The record followed here is publication PMC3547041.

By UniProt entry, the sequences of proteins in these tests, tags left out.
UniProt P19812: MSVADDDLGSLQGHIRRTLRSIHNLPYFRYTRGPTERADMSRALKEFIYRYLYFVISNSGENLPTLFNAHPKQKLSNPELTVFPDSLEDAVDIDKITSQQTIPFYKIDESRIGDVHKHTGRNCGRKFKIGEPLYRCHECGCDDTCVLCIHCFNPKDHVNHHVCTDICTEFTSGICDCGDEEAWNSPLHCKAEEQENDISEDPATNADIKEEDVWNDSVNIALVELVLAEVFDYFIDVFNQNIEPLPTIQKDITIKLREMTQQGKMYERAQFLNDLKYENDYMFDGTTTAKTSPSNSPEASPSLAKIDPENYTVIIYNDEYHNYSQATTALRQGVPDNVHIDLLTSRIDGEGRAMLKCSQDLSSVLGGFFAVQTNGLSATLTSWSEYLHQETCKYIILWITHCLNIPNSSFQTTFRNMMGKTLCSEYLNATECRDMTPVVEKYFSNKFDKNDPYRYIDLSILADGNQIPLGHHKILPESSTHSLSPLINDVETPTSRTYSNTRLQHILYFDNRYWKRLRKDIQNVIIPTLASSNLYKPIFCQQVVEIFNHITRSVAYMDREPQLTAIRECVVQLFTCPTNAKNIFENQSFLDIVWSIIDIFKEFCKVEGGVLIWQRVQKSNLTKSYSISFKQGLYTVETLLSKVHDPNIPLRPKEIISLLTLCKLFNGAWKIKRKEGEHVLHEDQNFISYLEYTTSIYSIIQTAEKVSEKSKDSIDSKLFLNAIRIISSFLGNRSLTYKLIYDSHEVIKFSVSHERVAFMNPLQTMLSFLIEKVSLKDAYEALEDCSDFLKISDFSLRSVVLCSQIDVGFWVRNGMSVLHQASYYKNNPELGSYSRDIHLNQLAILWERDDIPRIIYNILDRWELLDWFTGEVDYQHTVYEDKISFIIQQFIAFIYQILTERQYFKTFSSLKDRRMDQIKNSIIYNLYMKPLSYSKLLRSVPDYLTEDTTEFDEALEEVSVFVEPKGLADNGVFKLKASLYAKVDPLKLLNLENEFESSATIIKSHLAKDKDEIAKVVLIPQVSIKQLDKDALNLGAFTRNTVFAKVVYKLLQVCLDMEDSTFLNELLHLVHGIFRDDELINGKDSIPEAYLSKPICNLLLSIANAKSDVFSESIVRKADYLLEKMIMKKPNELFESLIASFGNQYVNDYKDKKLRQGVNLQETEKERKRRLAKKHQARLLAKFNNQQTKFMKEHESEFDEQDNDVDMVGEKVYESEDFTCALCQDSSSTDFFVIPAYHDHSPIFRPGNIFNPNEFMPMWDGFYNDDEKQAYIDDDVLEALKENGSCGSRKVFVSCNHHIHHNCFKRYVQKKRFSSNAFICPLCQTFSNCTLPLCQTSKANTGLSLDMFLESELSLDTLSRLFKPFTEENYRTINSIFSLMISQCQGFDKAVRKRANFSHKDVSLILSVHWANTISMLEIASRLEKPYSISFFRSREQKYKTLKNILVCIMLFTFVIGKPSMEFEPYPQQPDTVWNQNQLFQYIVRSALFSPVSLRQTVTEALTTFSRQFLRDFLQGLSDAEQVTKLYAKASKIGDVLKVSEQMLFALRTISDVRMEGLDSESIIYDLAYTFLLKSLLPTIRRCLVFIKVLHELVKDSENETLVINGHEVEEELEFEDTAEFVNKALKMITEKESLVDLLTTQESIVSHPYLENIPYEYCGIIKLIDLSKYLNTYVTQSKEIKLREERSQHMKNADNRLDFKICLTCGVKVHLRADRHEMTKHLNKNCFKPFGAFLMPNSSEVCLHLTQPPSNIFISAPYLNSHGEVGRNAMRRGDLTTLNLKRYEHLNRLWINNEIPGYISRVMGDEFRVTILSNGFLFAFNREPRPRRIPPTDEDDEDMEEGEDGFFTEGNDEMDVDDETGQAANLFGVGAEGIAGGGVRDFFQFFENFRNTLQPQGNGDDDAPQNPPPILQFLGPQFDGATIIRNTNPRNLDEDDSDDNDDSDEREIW
UniProt P10591: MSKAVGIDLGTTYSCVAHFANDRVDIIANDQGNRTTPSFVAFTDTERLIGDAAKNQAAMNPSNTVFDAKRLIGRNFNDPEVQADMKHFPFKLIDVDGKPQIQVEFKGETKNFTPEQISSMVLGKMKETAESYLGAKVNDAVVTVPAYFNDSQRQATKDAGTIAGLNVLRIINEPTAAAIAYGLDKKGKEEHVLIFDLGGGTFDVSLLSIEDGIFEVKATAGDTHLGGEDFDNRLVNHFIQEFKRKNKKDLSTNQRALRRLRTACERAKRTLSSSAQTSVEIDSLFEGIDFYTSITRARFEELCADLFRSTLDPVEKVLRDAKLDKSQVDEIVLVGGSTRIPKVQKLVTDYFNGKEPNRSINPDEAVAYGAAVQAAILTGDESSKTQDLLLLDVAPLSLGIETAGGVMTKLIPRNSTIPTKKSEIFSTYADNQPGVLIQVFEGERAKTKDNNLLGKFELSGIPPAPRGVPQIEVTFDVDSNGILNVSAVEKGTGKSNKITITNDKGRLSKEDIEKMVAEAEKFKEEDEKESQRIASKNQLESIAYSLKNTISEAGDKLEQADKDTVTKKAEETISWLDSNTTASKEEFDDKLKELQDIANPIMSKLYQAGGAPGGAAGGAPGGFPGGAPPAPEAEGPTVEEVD

The assay addresses Flag-Ubr1 (S. cerevisiae) (UniProt P19812). Nature of the assay: co-IP; Flag-Ubr1 isolated from yeast cell extracts under native conditions via FLAG affinity resin, bound material eluted with FLAG peptide, immunoblotting.

Results are given in words; binding and its absence hold for the method and conditions named. In cells and extracts the contact can be indirect. Some binding calls cover weakened binding; strength is not graded here.

As for Hsp70 Ssa1 (from UniProt P10591 1-642), the binding result is “binds”.

B1: Type II Hsp40 Sis1 (protein, UniProt P25294 1-352)
chain: MVKETKLYDLLGVSPSANEQELKKGYRKAALKYHPDKPTGDTEKFKEISEAFEILNDPQKREIYDQYGLEAARSGGPSFGPGGPGGAGGAGGFPGGAGGFSGGHAFSNEDAFNIFSQFFGGSSPFGGADDSGFSFSSYPSGGGAGMGGMPGGMGGMHGGMGGMPGGFRSASSSPTYPEEETVQVNLPVSLEDLFVGKKKSFKIGRKGPHGASEKTQIDIQLKPGWKAGTKITYKNQGDYNPQTGRRKTLQFVIQEKSHPNFKRDGDDLIYTLPLSFKESLLGFSKTIQTIDGRTLPLSRVQPVQPSQTSTYPGQGMPTPKNPSQRGNLIVKYKVDYPISLNDAQKRAIDENF
Turning to B1, the binding entry was “binds”.
